Data as given in article PMC10482750.
Results are given in words; binding and its absence hold for the method and conditions named. Some binding calls cover weakened binding; strength is not graded here. Where a sequence is shown, tags or fusion partners need not be part of it.

Sequences of proteins named here, by UniProt entry; tags and fusion partners are left off.
UniProt Q9Y113: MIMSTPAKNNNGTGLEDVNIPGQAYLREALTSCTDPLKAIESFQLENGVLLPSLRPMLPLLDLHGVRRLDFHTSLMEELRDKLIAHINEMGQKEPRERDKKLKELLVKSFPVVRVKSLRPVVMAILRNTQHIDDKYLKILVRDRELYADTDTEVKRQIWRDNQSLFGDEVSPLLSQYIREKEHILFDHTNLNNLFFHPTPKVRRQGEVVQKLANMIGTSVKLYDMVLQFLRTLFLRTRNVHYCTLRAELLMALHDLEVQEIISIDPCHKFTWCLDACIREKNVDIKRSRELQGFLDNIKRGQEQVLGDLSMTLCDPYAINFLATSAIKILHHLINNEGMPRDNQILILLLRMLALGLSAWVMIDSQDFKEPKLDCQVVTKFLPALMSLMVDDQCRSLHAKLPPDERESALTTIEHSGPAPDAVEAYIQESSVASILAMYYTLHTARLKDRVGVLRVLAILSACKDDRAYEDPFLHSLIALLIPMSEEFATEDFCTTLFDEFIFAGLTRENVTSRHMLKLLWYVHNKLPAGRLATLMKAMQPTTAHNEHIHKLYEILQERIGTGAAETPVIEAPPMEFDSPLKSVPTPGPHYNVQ

Legend:
[1] = target: T1, NELF-D-3x-FLAG (Drosophila) (UniProt Q24134); assay: tandem affinity co-purification; four NELF subunits co-expressed in Sf9; Ni-NTA (His10-NELF-E), then anti-FLAG resin (NELF-D-3x-FLAG); washes up to 500 mM NaCl, 250 mM KCl and 0.4 M KCl
T1 sequence: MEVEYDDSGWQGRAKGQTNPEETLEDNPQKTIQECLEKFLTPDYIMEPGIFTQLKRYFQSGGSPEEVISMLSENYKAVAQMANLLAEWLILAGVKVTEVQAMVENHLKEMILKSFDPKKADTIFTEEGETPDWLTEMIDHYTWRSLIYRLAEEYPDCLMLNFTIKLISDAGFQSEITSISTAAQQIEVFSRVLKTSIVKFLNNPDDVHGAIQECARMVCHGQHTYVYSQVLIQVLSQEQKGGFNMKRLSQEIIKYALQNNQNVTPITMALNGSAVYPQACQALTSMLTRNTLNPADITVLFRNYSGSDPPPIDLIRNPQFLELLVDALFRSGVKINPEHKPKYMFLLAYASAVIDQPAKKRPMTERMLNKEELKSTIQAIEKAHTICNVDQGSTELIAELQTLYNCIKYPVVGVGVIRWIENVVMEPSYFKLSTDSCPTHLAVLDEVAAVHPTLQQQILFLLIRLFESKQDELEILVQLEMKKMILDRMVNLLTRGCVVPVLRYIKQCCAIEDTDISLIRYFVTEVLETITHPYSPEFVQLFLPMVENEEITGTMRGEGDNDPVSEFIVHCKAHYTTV

[2] = target: T2, His10-NELF-E (Drosophila) (UniProt P92204); assay: as above
T2 sequence: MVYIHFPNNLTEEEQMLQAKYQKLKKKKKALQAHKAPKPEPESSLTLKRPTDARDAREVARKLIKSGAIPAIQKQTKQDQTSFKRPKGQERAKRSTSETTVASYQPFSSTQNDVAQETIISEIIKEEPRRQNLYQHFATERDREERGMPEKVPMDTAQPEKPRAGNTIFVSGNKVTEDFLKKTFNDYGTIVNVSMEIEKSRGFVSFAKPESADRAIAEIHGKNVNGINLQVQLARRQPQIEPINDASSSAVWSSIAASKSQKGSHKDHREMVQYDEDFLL

NELF-B (from UniProt Q9Y113 1-594)
binding [1]: binds | binding [2]: binds
